Results: PMC1817651, “Ets-2 and C/EBP-beta are important mediators of ovine trophoblast Kunitz domain protein-1 gene expression in trophoblast”
Results are given in words; binding and its absence hold for the method and conditions named. In cells and extracts the contact can be indirect. Some results given as binding are weak or reduced against the parent protein; the word gives no strength.

Sequences of proteins named here, by UniProt entry; tags and fusion partners are left off.
UniProt P17676: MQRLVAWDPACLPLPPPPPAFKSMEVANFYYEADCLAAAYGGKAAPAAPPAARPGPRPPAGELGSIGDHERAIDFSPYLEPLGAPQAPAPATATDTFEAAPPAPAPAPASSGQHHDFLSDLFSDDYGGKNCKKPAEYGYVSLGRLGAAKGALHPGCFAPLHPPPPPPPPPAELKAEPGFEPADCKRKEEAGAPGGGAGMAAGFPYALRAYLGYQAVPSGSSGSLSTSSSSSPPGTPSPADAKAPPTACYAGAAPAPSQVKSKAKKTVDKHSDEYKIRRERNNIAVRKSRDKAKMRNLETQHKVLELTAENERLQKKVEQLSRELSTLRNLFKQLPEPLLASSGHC

Target: CCAAT/enhancer binding protein-beta (human (endogenous in JEG-3)) (UniProt P17676)
Test: pull-down; biotinylated ds oligonucleotide of the C/EBP-binding element (-117 to -109 of the Tkdp-1 promoter) on immobilized streptavidin as bait; 0.5 to 1.0 mg JEG-3 cell extract, 25 mM Tris-HCl pH 7.5, 150 mM NaCl, 0.5% Triton X-100, 4°C overnight; western blots with C/EBP-β and Ets-2 antibodies

- binding: binds
B1: Ets-2 (protein, UniProt P15036 1-469)
chain: MNDFGIKNMDQVAPVANSYRGTLKRQPAFDTFDGSLFAVFPSLNEEQTLQEVPTGLDSISHDSANCELPLLTPCSKAVMSQALKATFSGFKKEQRRLGIPKNPWLWSEQQVCQWLLWATNEFSLVNVNLQRFGMNGQMLCNLGKERFLELAPDFVGDILWEHLEQMIKENQEKTEDQYEENSHLTSVPHWINSNTLGFGTEQAPYGMQTQNYPKGGLLDSMCPASTPSVLSSEQEFQMFPKSRLSSVSVTYCSVSQDFPGSNLNLLTNNSGTPKDHDSPENGADSFESSDSLLQSWNSQSSLLDVQRVPSFESFEDDCSQSLCLNKPTMSFKDYIQERSDPVEQGKPVIPAAVLAGFTGSGPIQLWQFLLELLSDKSCQSFISWTGDGWEFKLADPDEVARRWGKRKNKPKMNYEKLSRGLRYYYDKNIIHKTSGKRYVYRFVCDLQNLLGFTPEELHAILGVQPDTED
